Data as given in PubChem BioAssay AID1259308 (NCATS, 2017).

Aim: 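Candidate targets for better recombinant protein yield in mammalian cells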 (primary screen)
Cell system: human HEK293 embryonic kidney cells stably expressing firefly luciferase (HEK-CMV-Luc2-Hygro)
Reagents: single siRNA against human genes, 0.8 pmol siRNA per well
Timing: 72 h
Read-out: 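Reporter luminescence and viable-cell signal on separate replicate plates, given as percent of non-targeting control and median/MAD z-scores, plus per-cell luciferase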
Direction: total luciferase, z-score and total luciferase, % of control: higher = more reporter protein produced
Hit rule: 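Active when the median/MAD z-score for overall luciferase is greater than 3; a gene was taken forward for validation with new siRNAs if at least two of its three siRNAs passed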
Calls: active = raised luciferase; inactive = no rise
In all, the deposit lists about 59,000 reagents; this is a random part of them. In the full data, about 1,510 (2.6%) are marked active. 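Calls use total luciferase alone and ignore viability, so some active siRNAs may act by altering cell number.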 Reagents against one gene are numbered here. Further read-outs or replicates are left out here.

{"target gene":"KLF10 (KLF transcription factor 10)","reagent no.":1,"total luciferase, z-score":2.93,"total luciferase, % of control":140,"outcome":"inactive"}
{"target gene":"KLF10 (KLF transcription factor 10)","reagent no.":2,"total luciferase, z-score":0.191,"total luciferase, % of control":85.7,"outcome":"inactive"}
{"target gene":"KLF10 (KLF transcription factor 10)","reagent no.":3,"total luciferase, z-score":-0.897,"total luciferase, % of control":64,"outcome":"inactive"}
{"target gene":"PLXNB1 (plexin B1)","reagent no.":1,"total luciferase, z-score":0.249,"total luciferase, % of control":86.8,"outcome":"inactive"}
{"target gene":"PLXNB1 (plexin B1)","reagent no.":2,"total luciferase, z-score":-2.36,"total luciferase, % of control":35,"outcome":"inactive"}
{"target gene":"PLXNB1 (plexin B1)","reagent no.":3,"total luciferase, z-score":-0.355,"total luciferase, % of control":74.8,"outcome":"inactive"}
{"target gene":"COX8A (cytochrome c oxidase subunit 8A)","reagent no.":1,"total luciferase, z-score":-1.99,"total luciferase, % of control":42.3,"outcome":"inactive"}
{"target gene":"COX8A (cytochrome c oxidase subunit 8A)","reagent no.":2,"total luciferase, z-score":1.29,"total luciferase, % of control":108,"outcome":"inactive"}
{"target gene":"COX8A (cytochrome c oxidase subunit 8A)","reagent no.":3,"total luciferase, z-score":-0.167,"total luciferase, % of control":78.6,"outcome":"inactive"}
{"target gene":"NHSL3 (NHS like 3)","reagent no.":1,"total luciferase, z-score":1.16,"total luciferase, % of control":105,"outcome":"inactive"}
{"target gene":"NHSL3 (NHS like 3)","reagent no.":2,"total luciferase, z-score":-0.465,"total luciferase, % of control":72.6,"outcome":"inactive"}
{"target gene":"NHSL3 (NHS like 3)","reagent no.":3,"total luciferase, z-score":-1.17,"total luciferase, % of control":58.7,"outcome":"inactive"}
{"target gene":"PIR (pirin)","reagent no.":1,"total luciferase, z-score":0.132,"total luciferase, % of control":84.5,"outcome":"inactive"}
{"target gene":"PIR (pirin)","reagent no.":2,"total luciferase, z-score":2.04,"total luciferase, % of control":122,"outcome":"inactive"}
{"target gene":"PIR (pirin)","reagent no.":3,"total luciferase, z-score":0.103,"total luciferase, % of control":83.9,"outcome":"inactive"}
{"target gene":"TAF2 (TATA-box binding protein associated factor 2)","reagent no.":1,"total luciferase, z-score":1.55,"total luciferase, % of control":113,"outcome":"inactive"}
{"target gene":"TAF2 (TATA-box binding protein associated factor 2)","reagent no.":2,"total luciferase, z-score":-0.0929,"total luciferase, % of control":80,"outcome":"inactive"}
{"target gene":"TAF2 (TATA-box binding protein associated factor 2)","reagent no.":3,"total luciferase, z-score":0.537,"total luciferase, % of control":92.6,"outcome":"inactive"}
{"target gene":"TMEM164 (transmembrane protein 164)","reagent no.":1,"total luciferase, z-score":0.263,"total luciferase, % of control":87.1,"outcome":"inactive"}
{"target gene":"TMEM164 (transmembrane protein 164)","reagent no.":2,"total luciferase, z-score":-0.591,"total luciferase, % of control":70.1,"outcome":"inactive"}
{"target gene":"TMEM164 (transmembrane protein 164)","reagent no.":3,"total luciferase, z-score":-0.649,"total luciferase, % of control":69,"outcome":"inactive"}

2 entries from above in another layout:
target gene,reagent no.,"total luciferase, z-score","total luciferase, % of control",outcome
PIR (pirin),2,2.04,122,inactive
PIR (pirin),3,0.103,83.9,inactive
